Data as given in the supplement of paper PMC10735217.
Where a name gives a salt, the structure may show the parent alone. The list shows a part of the results. Single values are uncertain here, since repeats match poorly.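 In a drug-repurposing library screen, luminescence reads luciferase driven by eight TEAD-binding elements, stably integrated into human kidney-derived cells. Compounds scoring over five robust Z scores above the plate mean are called hits.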

Test system: HEK293A TEAD-LUC reporter
Assay: TEAD-luciferase reporter activity (YAP activation), robust Z score vs plate; higher = stronger YAP/TEAD activation
Settings: 24 h

SMILES: N=C(N)NCCC[C@@H](NC(=O)[C@@H](N)Cc1ccc(O)cc1)C(=O)NCC(=O)N[C@@H](Cc1ccc([N+](=O)[O-])cc1)C(=O)N1CCC[C@H]1C(N)=O
- TEAD-luciferase reporter activity (compound concentration: 200 nM): inactive: -0.419
- TEAD-luciferase reporter activity (compound concentration: 2 uM): inactive: -0.0521
- TEAD-luciferase reporter activity (compound concentration: 10 uM): inactive: 0.455

SMILES: C=CCC1(CC=C)C(=O)NC(=O)NC1=O
- TEAD-luciferase reporter activity (compound concentration: 200 nM): inactive: -0.428
- TEAD-luciferase reporter activity (compound concentration: 2 uM): inactive: -0.946
- TEAD-luciferase reporter activity (compound concentration: 10 uM): inactive: 2.43

SMILES: Cc1sc2ccccc2c1CC1=NCCN1
- TEAD-luciferase reporter activity (compound concentration: 200 nM): inactive: -0.102
- TEAD-luciferase reporter activity (compound concentration: 2 uM): inactive: -1.18
- TEAD-luciferase reporter activity (compound concentration: 10 uM): inactive: 1.29

SMILES: CCC(C)C(C)(COC(N)=O)COC(=O)NC(C)C (stereo unspecified)
- TEAD-luciferase reporter activity (compound concentration: 200 nM): inactive: 1.1
- TEAD-luciferase reporter activity (compound concentration: 2 uM): inactive: -0.458
- TEAD-luciferase reporter activity (compound concentration: 10 uM): inactive: -0.42

SMILES: CCC1(c2ccccc2)C(=O)N(COC)C(=O)N(COC)C1=O [eterobarb]
- TEAD-luciferase reporter activity (compound concentration: 200 nM): inactive: -0.466
- TEAD-luciferase reporter activity (compound concentration: 2 uM): inactive: -1.34
- TEAD-luciferase reporter activity (compound concentration: 10 uM): inactive: -0.0203

SMILES: CNC(C)(C)Cc1ccccc1
- TEAD-luciferase reporter activity (compound concentration: 200 nM): inactive: -0.84
- TEAD-luciferase reporter activity (compound concentration: 2 uM): inactive: -0.669
- TEAD-luciferase reporter activity (compound concentration: 10 uM): inactive: 0.492

SMILES: CC(C)CC1C(=O)N2CCCC2C2(O)OC(NC(=O)C3CC4c5cccc6[nH]cc(c56)CC4N(C)C3)(C(C)C)C(=O)N12 (stereo unspecified) [dihydroergocryptine, Poli]
- TEAD-luciferase reporter activity (compound concentration: 200 nM): inactive: -0.326
- TEAD-luciferase reporter activity (compound concentration: 10 uM): inactive: -2.85

SMILES: CC(C)CC1C(=O)N2CCCC2C2(O)OC(NC(=O)C3CC4c5cccc6[nH]cc(c56)CC4N(C)C3)(C(C)C)C(=O)N12 (stereo unspecified) [dihydroergocryptine]
- TEAD-luciferase reporter activity (compound concentration: 2 uM): inactive: -1.36

SMILES: Cc1csc(Cl)c1NC1=NCCN1 [Tiamenidine]
- TEAD-luciferase reporter activity (compound concentration: 200 nM): inactive: -0.799
- TEAD-luciferase reporter activity (compound concentration: 2 uM): inactive: -1.89
- TEAD-luciferase reporter activity (compound concentration: 10 uM): inactive: 0.854

SMILES: CC1=Cc2cc3c(cc2C(c2ccc(N)cc2)=NN1)OCO3
- TEAD-luciferase reporter activity (compound concentration: 200 nM): inactive: -0.663
- TEAD-luciferase reporter activity (compound concentration: 2 uM): inactive: 1.62
- TEAD-luciferase reporter activity (compound concentration: 10 uM): inactive: 0.0691

SMILES: Cn1ccc2c(Nc3cccc(Cl)c3)ncc(C(=O)N3CCOCC3)c21
- TEAD-luciferase reporter activity (compound concentration: 200 nM): inactive: -1.16
- TEAD-luciferase reporter activity (compound concentration: 2 uM): inactive: -0.103
- TEAD-luciferase reporter activity (compound concentration: 10 uM): inactive: -0.128

SMILES: C[N+]1(C)CCOC(O)(c2ccc(-c3ccc(C4(O)C[N+](C)(C)CCO4)cc3)cc2)C1 (stereo unspecified)
- TEAD-luciferase reporter activity (compound concentration: 200 nM): inactive: 0.213
- TEAD-luciferase reporter activity (compound concentration: 2 uM): inactive: 1.04
- TEAD-luciferase reporter activity (compound concentration: 10 uM): inactive: -0.184

SMILES: Cc1ccccc1-n1c(CF)nc2ccc(N)cc2c1=O [afloqualone]
- TEAD-luciferase reporter activity (compound concentration: 200 nM): inactive: -0.697
- TEAD-luciferase reporter activity (compound concentration: 2 uM): inactive: -1.24
- TEAD-luciferase reporter activity (compound concentration: 10 uM): inactive: -0.905

SMILES: CN1C(=O)C(NC(=O)NC(CC2CCCCC2)C(O)CSc2nnnn2C)N=C(c2ccccc2)c2ccccc21 (stereo unspecified)
- TEAD-luciferase reporter activity (compound concentration: 200 nM): inactive: -0.668
- TEAD-luciferase reporter activity (compound concentration: 2 uM): inactive: -0.791
- TEAD-luciferase reporter activity (compound concentration: 10 uM): inactive: -1.09

SMILES: CC[C@@]1(O)C(=O)OCc2c1cc1n(c2=O)C(OCCO)c2cc3ccccc3nc2-1 (stereo partly specified)
- TEAD-luciferase reporter activity (compound concentration: 200 nM): inactive: -0.105
- TEAD-luciferase reporter activity (compound concentration: 2 uM): inactive: -0.535
- TEAD-luciferase reporter activity (compound concentration: 10 uM): inactive: -1.44

SMILES: CN1c2ccccc2C(c2ccccc2)=NCC1CCNC(=O)c1ccc(F)cc1 (stereo unspecified)
- TEAD-luciferase reporter activity (compound concentration: 200 nM): inactive: -2.45
- TEAD-luciferase reporter activity (compound concentration: 2 uM): inactive: -1.74
- TEAD-luciferase reporter activity (compound concentration: 10 uM): inactive: 0.233

SMILES: COc1ccsc1CNCC[C@@]1(c2ccccn2)CCOC2(CCCC2)C1
- TEAD-luciferase reporter activity (compound concentration: 200 nM): inactive: 0.308
- TEAD-luciferase reporter activity (compound concentration: 2 uM): inactive: 1.15
- TEAD-luciferase reporter activity (compound concentration: 10 uM): inactive: -1.67

SMILES: CCCC1(c2cccc(O)c2)CCN(C)C1 (stereo unspecified)
- TEAD-luciferase reporter activity (compound concentration: 200 nM): inactive: -1.3
- TEAD-luciferase reporter activity (compound concentration: 2 uM): inactive: -0.343
- TEAD-luciferase reporter activity (compound concentration: 10 uM): inactive: 0.301

SMILES: Cc1cccc(NC(=O)N[C@@H]2N=C(c3ccccc3)c3ccccc3N(C)C2=O)c1
- TEAD-luciferase reporter activity (compound concentration: 200 nM): inactive: -0.0605
- TEAD-luciferase reporter activity (compound concentration: 2 uM): inactive: 0.446
- TEAD-luciferase reporter activity (compound concentration: 10 uM): inactive: 2.18

SMILES: CC(Cc1ccc2c(c1)OCO2)NCC(O)c1ccc(O)c(O)c1 (stereo unspecified)
- TEAD-luciferase reporter activity (compound concentration: 200 nM): inactive: -0.0169
- TEAD-luciferase reporter activity (compound concentration: 2 uM): inactive: 0.336
- TEAD-luciferase reporter activity (compound concentration: 10 uM): inactive: 4.14

SMILES: CC(C)(O)C(Cl)(Cl)Cl
- TEAD-luciferase reporter activity (compound concentration: 200 nM): inactive: 0.0883
- TEAD-luciferase reporter activity (compound concentration: 2 uM): inactive: -0.102
- TEAD-luciferase reporter activity (compound concentration: 10 uM): inactive: 1.67

SMILES: [Hg+][c]1ccccc1
- TEAD-luciferase reporter activity (compound concentration: 200 nM): inactive: -0.311
- TEAD-luciferase reporter activity (compound concentration: 2 uM): inactive: 1.69
- TEAD-luciferase reporter activity (compound concentration: 10 uM): active: 9.7

SMILES: CCCNC(=O)c1c(NC(=O)C23CC4CC(CC(C4)C2)C3)sc2c1CCOC2
- TEAD-luciferase reporter activity (compound concentration: 200 nM): inactive: 0.435
- TEAD-luciferase reporter activity (compound concentration: 2 uM): inactive: 1.41
- TEAD-luciferase reporter activity (compound concentration: 10 uM): inactive: -0.267

SMILES: O=C(c1ccncc1)N1CC2CCC(C1)N2Cc1ccc(Cl)cc1
- TEAD-luciferase reporter activity (compound concentration: 200 nM): inactive: 0.0731
- TEAD-luciferase reporter activity (compound concentration: 10 uM): inactive: 0.661

SMILES: Fc1ccc(F)c2c1OC1CNCC1O2 (stereo unspecified)
- TEAD-luciferase reporter activity (compound concentration: 200 nM): inactive: -2.79
- TEAD-luciferase reporter activity (compound concentration: 2 uM): inactive: 0.127
- TEAD-luciferase reporter activity (compound concentration: 10 uM): inactive: -1.29

SMILES: C#C[C@]1(OC(=O)CCCCCC)CC[C@H]2[C@@H]3CCC4=CC(=O)CC[C@@H]4[C@H]3CC[C@@]21C [Norethisterone enanthate]
- TEAD-luciferase reporter activity (compound concentration: 200 nM): inactive: -0.386
- TEAD-luciferase reporter activity (compound concentration: 2 uM): inactive: 3.31
- TEAD-luciferase reporter activity (compound concentration: 10 uM): inactive: -1.75

SMILES: O=c1[nH]c2ccccc2n1CCCN1CCC(n2c(=O)[nH]c3cc(Cl)ccc32)CC1 [domperidone]
- TEAD-luciferase reporter activity (compound concentration: 200 nM): inactive: -0.422
- TEAD-luciferase reporter activity (compound concentration: 2 uM): inactive: -0.25
- TEAD-luciferase reporter activity (compound concentration: 10 uM): inactive: 3.93

SMILES: C[C@@H]1CN([C@H]2CC[C@](C#N)(c3ccc(F)cc3)CC2)CC[C@]1(C(=O)O)c1ccccc1 [levocabastine]
- TEAD-luciferase reporter activity (compound concentration: 2 uM): inactive: 1.78

SMILES: C[C@@H]1CN([C@H]2CC[C@](C#N)(c3ccc(F)cc3)CC2)CC[C@]1(C(=O)O)c1ccccc1 [Levocabastine HCl]
- TEAD-luciferase reporter activity (compound concentration: 200 nM): inactive: -0.785
- TEAD-luciferase reporter activity (compound concentration: 10 uM): inactive: -0.555

SMILES: CNCC(OC)c1cccc(C(F)(F)F)c1 (stereo unspecified)
- TEAD-luciferase reporter activity (compound concentration: 200 nM): inactive: 1.23
- TEAD-luciferase reporter activity (compound concentration: 2 uM): inactive: 1.96
- TEAD-luciferase reporter activity (compound concentration: 10 uM): inactive: -0.122

SMILES: O=[N+]([O-])NC1=NCCN1Cc1ccc(Cl)nc1 [Imidacloprid]
- TEAD-luciferase reporter activity (compound concentration: 200 nM): inactive: 0.447
- TEAD-luciferase reporter activity (compound concentration: 2 uM): inactive: 0.681
- TEAD-luciferase reporter activity (compound concentration: 10 uM): inactive: -1.21

SMILES: O=S(=O)([O-])CCNCl [N-Chlorotaurine]
- TEAD-luciferase reporter activity (compound concentration: 200 nM): inactive: -0.362
- TEAD-luciferase reporter activity (compound concentration: 2 uM): inactive: 2.88
- TEAD-luciferase reporter activity (compound concentration: 10 uM): inactive: 0.0769

SMILES: COc1ccc(NC(=S)N2CCc3c(sc4c3C(c3ccccc3Cl)=NCc3nnc(C)n3-4)C2)cc1
- TEAD-luciferase reporter activity (compound concentration: 200 nM): inactive: 0.29
- TEAD-luciferase reporter activity (compound concentration: 2 uM): inactive: -2.03
- TEAD-luciferase reporter activity (compound concentration: 10 uM): inactive: -2.3

SMILES: CNCCc1cnc[nH]1 [N'-Methylhistamine]
- TEAD-luciferase reporter activity (compound concentration: 200 nM): inactive: -0.726
- TEAD-luciferase reporter activity (compound concentration: 2 uM): inactive: -0.884
- TEAD-luciferase reporter activity (compound concentration: 10 uM): inactive: -0.729

SMILES: C[C@@H](NC(=O)[C@@H](N)Cc1ccc(O)cc1)C(=O)NCC(=O)N[C@@H](Cc1ccc([N+](=O)[O-])cc1)C(=O)N1CCC[C@H]1C(N)=O
- TEAD-luciferase reporter activity (compound concentration: 200 nM): inactive: -1.98
- TEAD-luciferase reporter activity (compound concentration: 2 uM): inactive: -0.348
- TEAD-luciferase reporter activity (compound concentration: 10 uM): inactive: 1.74

SMILES: CC(C(O)c1ccccc1)N(C)C/C=C/c1ccccc1 (stereo unspecified)
- TEAD-luciferase reporter activity (compound concentration: 200 nM): inactive: -0.994
- TEAD-luciferase reporter activity (compound concentration: 2 uM): inactive: -0.861
- TEAD-luciferase reporter activity (compound concentration: 10 uM): inactive: -2.32
